Measurements reported in PubChem BioAssay AID504774 (Drosophila RNAi Screening Center, 2011)
In all, the deposit lists about 23,000 reagents; shown is an unselected part of those that have a named target and a result. 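Values are quantile-normalised luminescence on an arbitrary scale; higher means more cells surviving MMS.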 Reagents against one gene are numbered here. Names joined by + are all predicted targets of the reagent. Not all columns of the deposit are shown.

Screen: 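Knock-downs that shift viability of MMS-exposed cells relative to untreated ones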 (primary screen)
Cells: Drosophila Kc167 cells
Knock-down reagent: long dsRNA against Drosophila genes, about 0.25 µg dsRNA per well
Timing: about 6 days: 3 days knock-down, then 3 days with or without MMS
Challenge: methyl methanesulphonate 0.004% (w/v) for 3 days after knock-down
Measurement: 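ATP-dependent luminescence as a measure of live cells in MMS-exposed wells, quantile normalised within each plate, with replicate values also given as a mean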
Reading the numbers: mean viability with MMS and viability with MMS: higher = more surviving cells after MMS

CG17824 (retired record)
- mean viability with MMS: 3.59e6
- viability with MMS, replicate 1: 4.02e6

KP78b + KP78a #1
- mean viability with MMS: 3.09e6
- viability with MMS, replicate 1: 3.31e6

KP78b + KP78a #2
- mean viability with MMS: 3.01e6
- viability with MMS, replicate 1: 3.88e6

Pez
- mean viability with MMS: 3.66e6
- viability with MMS, replicate 1: 4.09e6

CG42715 (retired record)
- mean viability with MMS: 3.47e6
- viability with MMS, replicate 1: 4.04e6

CG42813 + CG42814 #1
- mean viability with MMS: 3.59e6
- viability with MMS, replicate 1: 4.08e6

CG42813 + CG42814 #2
- mean viability with MMS: 3.59e6
- viability with MMS, replicate 1: 4.13e6

p
- mean viability with MMS: 3.45e6
- viability with MMS, replicate 1: 3.93e6

blw
- mean viability with MMS: 3.33e6
- viability with MMS, replicate 1: 3.73e6

CR33319
- mean viability with MMS: 3.57e6
- viability with MMS, replicate 1: 4.02e6

CG12730
- mean viability with MMS: 3.58e6
- viability with MMS, replicate 1: 4.09e6

CG8840
- mean viability with MMS: 3.67e6
- viability with MMS, replicate 1: 4.11e6

Copied from the list:
CG42813 + CG42814 #1, viability with MMS, replicate 1 → 4.08e6
Result of CG8840 under “mean viability with MMS”: 3.67e6
CG17824 (retired record), mean viability with MMS = 3.59e6

The list goes on.
Antdh
- mean viability with MMS: 3.62e6
- viability with MMS, replicate 1: 4.16e6

crol #1
- mean viability with MMS: 3.77e6
- viability with MMS, replicate 1: 4.31e6

crol #2
- mean viability with MMS: 3.61e6
- viability with MMS, replicate 1: 4.13e6

Or1a
- mean viability with MMS: 3.57e6
- viability with MMS, replicate 1: 3.95e6

CG15570
- mean viability with MMS: 3.60e6
- viability with MMS, replicate 1: 4.10e6

CG5359
- mean viability with MMS: 3.37e6
- viability with MMS, replicate 1: 3.87e6

serp #1
- mean viability with MMS: 3.61e6
- viability with MMS, replicate 1: 4.13e6

serp #2
- mean viability with MMS: 3.65e6
- viability with MMS, replicate 1: 4.21e6

emp #1
- mean viability with MMS: 3.84e6
- viability with MMS, replicate 1: 4.54e6

emp #2
- mean viability with MMS: 3.56e6
- viability with MMS, replicate 1: 4.22e6

RpL9
- mean viability with MMS: 3.01e6
- viability with MMS, replicate 1: 3.56e6

Gagr
- mean viability with MMS: 3.71e6
- viability with MMS, replicate 1: 4.22e6
